Results published in the supplement of paper PMC6411743.
± gives the standard deviation of the averaged measurements. This is a selection; strong and weak results do not stand in their true shares.

The chains behind the UniProt entries cited, without tags or fusion partners. Where a name states a change or a piece, a line headed by the entry shows the natural chain unless it says otherwise.
UniProt Q9UGU0: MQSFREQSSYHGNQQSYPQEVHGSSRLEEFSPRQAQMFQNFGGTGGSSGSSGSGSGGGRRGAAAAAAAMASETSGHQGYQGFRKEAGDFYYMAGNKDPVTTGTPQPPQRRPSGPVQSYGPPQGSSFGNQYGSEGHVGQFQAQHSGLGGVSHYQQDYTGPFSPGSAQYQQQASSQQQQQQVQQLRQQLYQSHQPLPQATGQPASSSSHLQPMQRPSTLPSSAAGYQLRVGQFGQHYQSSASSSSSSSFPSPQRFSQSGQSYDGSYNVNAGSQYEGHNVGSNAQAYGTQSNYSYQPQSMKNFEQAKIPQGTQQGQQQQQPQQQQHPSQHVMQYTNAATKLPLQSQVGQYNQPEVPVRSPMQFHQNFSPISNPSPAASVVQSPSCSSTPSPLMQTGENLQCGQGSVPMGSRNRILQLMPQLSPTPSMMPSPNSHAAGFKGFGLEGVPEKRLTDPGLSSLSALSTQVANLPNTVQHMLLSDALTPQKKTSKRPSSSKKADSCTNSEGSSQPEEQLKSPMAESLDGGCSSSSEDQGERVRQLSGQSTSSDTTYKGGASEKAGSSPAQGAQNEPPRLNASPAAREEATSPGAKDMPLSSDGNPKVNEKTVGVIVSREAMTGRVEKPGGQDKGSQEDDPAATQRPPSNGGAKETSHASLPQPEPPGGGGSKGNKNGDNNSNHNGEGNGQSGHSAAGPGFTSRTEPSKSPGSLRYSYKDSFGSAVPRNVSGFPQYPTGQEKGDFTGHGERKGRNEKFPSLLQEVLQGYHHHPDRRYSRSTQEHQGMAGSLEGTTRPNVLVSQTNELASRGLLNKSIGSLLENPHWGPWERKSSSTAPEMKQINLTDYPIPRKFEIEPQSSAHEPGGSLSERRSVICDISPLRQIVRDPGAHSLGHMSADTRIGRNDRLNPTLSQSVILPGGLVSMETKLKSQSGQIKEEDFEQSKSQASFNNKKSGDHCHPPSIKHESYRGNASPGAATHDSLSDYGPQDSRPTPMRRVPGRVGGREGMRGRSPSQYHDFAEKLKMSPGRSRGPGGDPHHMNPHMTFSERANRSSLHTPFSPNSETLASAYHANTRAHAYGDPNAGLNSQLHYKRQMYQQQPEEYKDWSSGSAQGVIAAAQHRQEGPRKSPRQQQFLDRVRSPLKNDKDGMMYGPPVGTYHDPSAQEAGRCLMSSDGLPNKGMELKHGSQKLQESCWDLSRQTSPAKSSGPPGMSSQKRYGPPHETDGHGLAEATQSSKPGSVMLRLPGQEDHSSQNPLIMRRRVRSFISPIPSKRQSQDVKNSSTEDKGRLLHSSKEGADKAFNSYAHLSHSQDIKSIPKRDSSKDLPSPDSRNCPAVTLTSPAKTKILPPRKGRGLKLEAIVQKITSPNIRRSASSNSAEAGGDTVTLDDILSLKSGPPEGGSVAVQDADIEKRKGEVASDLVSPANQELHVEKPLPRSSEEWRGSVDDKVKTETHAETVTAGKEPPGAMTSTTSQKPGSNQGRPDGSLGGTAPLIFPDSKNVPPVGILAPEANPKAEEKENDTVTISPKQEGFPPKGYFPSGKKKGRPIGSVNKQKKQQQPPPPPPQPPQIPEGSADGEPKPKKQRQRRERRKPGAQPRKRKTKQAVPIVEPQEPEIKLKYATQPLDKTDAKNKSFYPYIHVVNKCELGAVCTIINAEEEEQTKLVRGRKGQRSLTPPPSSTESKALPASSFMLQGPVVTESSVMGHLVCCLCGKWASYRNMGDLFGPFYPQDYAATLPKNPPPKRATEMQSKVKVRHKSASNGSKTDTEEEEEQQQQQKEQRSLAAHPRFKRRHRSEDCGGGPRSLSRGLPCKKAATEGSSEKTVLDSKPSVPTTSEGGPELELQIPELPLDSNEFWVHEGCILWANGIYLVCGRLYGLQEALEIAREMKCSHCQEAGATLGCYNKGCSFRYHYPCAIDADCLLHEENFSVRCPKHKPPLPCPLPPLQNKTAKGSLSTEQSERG
UniProt Q9Y252: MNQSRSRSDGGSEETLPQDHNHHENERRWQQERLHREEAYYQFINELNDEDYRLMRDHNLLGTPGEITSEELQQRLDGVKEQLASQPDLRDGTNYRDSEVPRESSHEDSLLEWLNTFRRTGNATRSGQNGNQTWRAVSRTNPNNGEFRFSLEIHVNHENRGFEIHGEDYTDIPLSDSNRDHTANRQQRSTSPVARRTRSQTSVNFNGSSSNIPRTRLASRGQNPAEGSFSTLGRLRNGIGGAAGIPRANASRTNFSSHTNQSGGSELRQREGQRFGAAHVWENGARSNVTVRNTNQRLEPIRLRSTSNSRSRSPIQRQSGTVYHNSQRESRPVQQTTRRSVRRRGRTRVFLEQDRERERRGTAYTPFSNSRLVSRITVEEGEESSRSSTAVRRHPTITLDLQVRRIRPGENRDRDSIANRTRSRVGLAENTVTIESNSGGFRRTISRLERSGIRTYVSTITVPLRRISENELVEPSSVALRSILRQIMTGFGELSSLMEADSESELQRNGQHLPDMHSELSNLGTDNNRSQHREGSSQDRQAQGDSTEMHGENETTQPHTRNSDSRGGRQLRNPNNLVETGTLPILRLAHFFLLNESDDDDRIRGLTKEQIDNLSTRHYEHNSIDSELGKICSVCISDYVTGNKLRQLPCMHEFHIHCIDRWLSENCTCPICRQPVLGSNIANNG
UniProt Q9UNZ2: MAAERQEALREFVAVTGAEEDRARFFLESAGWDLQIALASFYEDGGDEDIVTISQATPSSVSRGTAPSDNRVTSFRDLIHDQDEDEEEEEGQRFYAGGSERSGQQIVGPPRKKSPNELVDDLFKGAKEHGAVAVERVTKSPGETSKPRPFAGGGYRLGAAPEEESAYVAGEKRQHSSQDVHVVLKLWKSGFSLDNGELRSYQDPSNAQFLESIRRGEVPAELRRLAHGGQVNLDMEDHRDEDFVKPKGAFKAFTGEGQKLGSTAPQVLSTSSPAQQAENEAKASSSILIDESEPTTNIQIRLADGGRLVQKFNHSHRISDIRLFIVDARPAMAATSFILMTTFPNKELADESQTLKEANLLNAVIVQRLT
UniProt Q9UBD5: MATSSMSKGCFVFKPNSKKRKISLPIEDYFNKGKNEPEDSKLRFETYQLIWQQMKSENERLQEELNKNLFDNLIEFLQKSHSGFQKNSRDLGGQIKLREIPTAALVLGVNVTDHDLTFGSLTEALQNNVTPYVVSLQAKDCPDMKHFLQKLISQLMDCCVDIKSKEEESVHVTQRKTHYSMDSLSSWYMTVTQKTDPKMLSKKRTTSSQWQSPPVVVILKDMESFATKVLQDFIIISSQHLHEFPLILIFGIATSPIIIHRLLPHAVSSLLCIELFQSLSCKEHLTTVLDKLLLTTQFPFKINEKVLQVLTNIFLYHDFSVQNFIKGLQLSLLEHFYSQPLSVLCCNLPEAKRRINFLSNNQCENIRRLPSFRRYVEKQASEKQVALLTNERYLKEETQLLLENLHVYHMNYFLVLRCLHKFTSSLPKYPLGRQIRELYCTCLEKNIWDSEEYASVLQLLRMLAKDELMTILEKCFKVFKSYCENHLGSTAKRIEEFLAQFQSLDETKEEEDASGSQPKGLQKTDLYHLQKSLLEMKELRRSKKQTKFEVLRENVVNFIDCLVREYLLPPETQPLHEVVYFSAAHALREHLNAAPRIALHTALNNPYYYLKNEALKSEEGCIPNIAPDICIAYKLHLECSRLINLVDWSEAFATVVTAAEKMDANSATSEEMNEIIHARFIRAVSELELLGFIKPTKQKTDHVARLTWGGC
UniProt Q9UGU5: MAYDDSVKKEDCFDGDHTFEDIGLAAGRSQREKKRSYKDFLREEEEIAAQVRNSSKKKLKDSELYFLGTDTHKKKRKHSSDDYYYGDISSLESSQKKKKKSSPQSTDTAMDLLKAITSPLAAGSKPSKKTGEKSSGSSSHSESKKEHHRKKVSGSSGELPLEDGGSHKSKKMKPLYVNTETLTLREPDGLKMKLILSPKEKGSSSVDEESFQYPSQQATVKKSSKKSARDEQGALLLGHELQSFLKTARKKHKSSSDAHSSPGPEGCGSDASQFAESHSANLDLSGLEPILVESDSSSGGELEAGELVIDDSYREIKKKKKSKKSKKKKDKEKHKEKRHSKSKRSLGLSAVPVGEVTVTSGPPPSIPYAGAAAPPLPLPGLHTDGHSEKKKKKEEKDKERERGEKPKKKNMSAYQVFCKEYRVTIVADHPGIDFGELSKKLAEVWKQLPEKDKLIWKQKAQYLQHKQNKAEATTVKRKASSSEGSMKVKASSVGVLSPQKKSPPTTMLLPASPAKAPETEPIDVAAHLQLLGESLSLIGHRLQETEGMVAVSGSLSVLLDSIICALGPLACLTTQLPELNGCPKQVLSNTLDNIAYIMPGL
UniProt Q9UQR1: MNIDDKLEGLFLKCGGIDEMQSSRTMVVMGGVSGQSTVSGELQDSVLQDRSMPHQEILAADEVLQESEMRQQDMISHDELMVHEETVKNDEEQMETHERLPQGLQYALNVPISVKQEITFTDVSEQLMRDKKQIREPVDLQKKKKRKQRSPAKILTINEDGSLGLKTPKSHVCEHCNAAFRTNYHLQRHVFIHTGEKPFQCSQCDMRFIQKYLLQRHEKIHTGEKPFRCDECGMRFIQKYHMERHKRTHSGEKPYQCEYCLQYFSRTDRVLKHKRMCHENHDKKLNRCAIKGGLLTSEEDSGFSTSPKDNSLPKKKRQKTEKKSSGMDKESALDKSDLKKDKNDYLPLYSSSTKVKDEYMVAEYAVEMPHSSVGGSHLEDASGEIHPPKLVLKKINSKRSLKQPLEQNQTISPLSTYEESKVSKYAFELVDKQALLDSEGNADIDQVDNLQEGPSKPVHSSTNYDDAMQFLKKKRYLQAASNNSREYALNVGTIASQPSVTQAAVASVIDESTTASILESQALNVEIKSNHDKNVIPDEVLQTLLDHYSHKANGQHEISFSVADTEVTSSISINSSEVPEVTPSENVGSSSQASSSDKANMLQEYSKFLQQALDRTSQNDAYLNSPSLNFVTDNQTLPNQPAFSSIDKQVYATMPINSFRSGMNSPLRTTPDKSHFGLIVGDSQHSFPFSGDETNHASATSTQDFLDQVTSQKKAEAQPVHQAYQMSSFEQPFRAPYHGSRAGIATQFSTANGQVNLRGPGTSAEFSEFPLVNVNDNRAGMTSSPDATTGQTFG
UniProt Q9ULR0: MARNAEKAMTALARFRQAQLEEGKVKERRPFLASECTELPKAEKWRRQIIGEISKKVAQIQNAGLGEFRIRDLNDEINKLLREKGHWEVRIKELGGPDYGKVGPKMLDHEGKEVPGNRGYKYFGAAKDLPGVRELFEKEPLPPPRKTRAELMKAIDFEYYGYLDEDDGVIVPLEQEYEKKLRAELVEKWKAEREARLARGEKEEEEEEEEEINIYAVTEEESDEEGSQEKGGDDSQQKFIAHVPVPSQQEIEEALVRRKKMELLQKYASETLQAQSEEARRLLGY
UniProt Q9UBQ6: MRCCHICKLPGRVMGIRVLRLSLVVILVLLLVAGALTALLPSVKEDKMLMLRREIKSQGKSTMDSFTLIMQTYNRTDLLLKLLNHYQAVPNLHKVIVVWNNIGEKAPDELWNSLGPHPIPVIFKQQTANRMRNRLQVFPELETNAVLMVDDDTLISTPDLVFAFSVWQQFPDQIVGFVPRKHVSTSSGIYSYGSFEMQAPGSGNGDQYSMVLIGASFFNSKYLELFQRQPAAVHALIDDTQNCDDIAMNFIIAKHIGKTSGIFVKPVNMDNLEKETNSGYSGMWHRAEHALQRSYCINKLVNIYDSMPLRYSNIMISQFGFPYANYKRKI
UniProt Q9Y250: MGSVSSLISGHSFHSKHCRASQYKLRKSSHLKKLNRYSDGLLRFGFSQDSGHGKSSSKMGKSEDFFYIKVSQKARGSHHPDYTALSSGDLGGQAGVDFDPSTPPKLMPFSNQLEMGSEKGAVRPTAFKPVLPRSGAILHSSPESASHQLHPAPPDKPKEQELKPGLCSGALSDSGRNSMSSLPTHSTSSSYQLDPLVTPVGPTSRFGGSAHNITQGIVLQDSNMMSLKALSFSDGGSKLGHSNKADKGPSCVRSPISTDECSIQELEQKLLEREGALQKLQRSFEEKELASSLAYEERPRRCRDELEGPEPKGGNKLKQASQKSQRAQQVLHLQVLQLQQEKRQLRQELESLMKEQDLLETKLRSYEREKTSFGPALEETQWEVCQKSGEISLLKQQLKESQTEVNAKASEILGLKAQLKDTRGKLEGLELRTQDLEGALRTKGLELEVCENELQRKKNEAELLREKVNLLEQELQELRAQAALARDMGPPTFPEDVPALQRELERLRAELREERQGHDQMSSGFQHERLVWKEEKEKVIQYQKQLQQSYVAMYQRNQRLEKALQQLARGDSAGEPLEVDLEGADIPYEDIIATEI
UniProt Q9UDW3: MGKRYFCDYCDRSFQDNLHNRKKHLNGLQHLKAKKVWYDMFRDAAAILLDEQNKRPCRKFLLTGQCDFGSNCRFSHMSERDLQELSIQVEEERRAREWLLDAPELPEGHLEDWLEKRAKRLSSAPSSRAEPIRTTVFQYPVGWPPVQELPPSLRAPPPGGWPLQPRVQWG

These targets were tested with Nc1ncnc2c1ncn2[C@@H]1O[C@H](COP(=O)(O)OP(=O)(O)OP(=O)(O)O)[C@@H](O)[C@H]1O [adenosine triphosphate] (assay: NP40-soluble protein abundance relative to vehicle (solubility fold change) (ratio); higher = more soluble protein in presence of ATP). Conditions: concentration: 1mM.
Procedure, shortened: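 Each value is a fold change relative to the detergent-processed vehicle, calculated per replicate from vsn-normalised intensities. Jurkat crude lysate received eight concentrations (0.1 to 10 mM) for 10 min at room temperature and 3 min at 37 °C, then was solubilised in 0.8% NP40 with benzonase (60 min, 4 °C). The ultracentrifuged supernatant was TMT-labelled and run by LC-MS/MS in three independent experiments.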

Target	NP40-soluble protein abundance
GRHPR (UniProt Q9UBQ7)	0.979 ± 0.073
PLAA (UniProt Q9Y263)	0.979 ± 0.035
UniProt Q9UGU0 and related entries	1.09 ± 0.056
UniProt Q9UI30	1.07 ± 0.1
UniProt Q9Y252	1.05 ± 0.073
UniProt Q9UNZ2 and related entries	0.946 ± 0.043
UniProt Q9ULJ3	1 ± 0.037
UniProt Q9UBD5 and related entries	1.06 ± 0.062
DNAJB4 (UniProt Q9UDY4)	0.878 ± 0.036
VDAC3 (UniProt Q9Y277)	0.972 ± 0.064
UniProt Q9UK76	0.884 ± 0.071
USP24 (UniProt Q9UPU5)	1.01 ± 0.063
UniProt Q9UNL4 and related entries	1.1 ± 0.066
HMGXB4 (UniProt Q9UGU5)	1.08 ± 0.05
ZNF148 (UniProt Q9UQR1)	0.98 ± 0.05
RAB22A (UniProt Q9UL26)	0.971 ± 0.16
C19orf53 (UniProt Q9UNZ5)	0.931 ± 0.3
KMT2B (UniProt Q9UMN6)	0.993 ± 0.082
ARPP21 (UniProt Q9UBL0)	0.924 ± 0.056

Target	NP40-soluble protein abundance
CGGBP1 (UniProt Q9UFW8)	1.03 ± 0.071
UniProt Q9ULR0 and related entries	0.955 ± 0.066
EXTL2 (UniProt Q9UBQ6)	1.01 ± 0.015
APPL1 (UniProt Q9UKG1)	1.05 ± 0.058
UniProt Q9Y250 and related entries	1.03 ± 0.031
UniProt Q9UKX7 and related entries	1.09 ± 0.047
RUVBL2 (UniProt Q9Y230)	1.11 ± 0.021
ZNFX1 (UniProt Q9P2E3)	1.072 ± 0.0053
CHORDC1 (UniProt Q9UHD1)	0.976 ± 0.056
MTMR6 (UniProt Q9Y217)	0.985 ± 0.05
DPP7 (UniProt Q9UHL4)	0.953 ± 0.037
SRP68 (UniProt Q9UHB9)	0.991 ± 0.025
AKAP11 (UniProt Q9UKA4)	1.008 ± 0.0078
NOL7 (UniProt Q9UMY1)	0.987 ± 0.085
UniProt Q9ULL5-3	0.951 ± 0.05
AASS (UniProt Q9UDR5)	1.03 ± 0.088
CFDP1 (UniProt Q9UEE9)	0.878 ± 0.07
ZMAT5 (UniProt Q9UDW3)	1.17 ± 0.27

Same assay, conditions: concentration: 2mM

Target	NP40-soluble protein abundance
GRHPR (UniProt Q9UBQ7)	0.974 ± 0.073
PLAA (UniProt Q9Y263)	0.987 ± 0.049
UniProt Q9UGU0 and related entries	1.13 ± 0.093
UniProt Q9UI30	0.995 ± 0.089
UniProt Q9Y252	1.06 ± 0.047
UniProt Q9UNZ2 and related entries	0.96 ± 0.016
UniProt Q9ULJ3	0.979 ± 0.053
UniProt Q9UBD5 and related entries	1.03 ± 0.024
DNAJB4 (UniProt Q9UDY4)	0.851 ± 0.042
VDAC3 (UniProt Q9Y277)	0.953 ± 0.038
UniProt Q9UK76	0.875 ± 0.06
USP24 (UniProt Q9UPU5)	0.996 ± 0.048
UniProt Q9UNL4 and related entries	1.18 ± 0.091
HMGXB4 (UniProt Q9UGU5)	1.07 ± 0.016
ZNF148 (UniProt Q9UQR1)	1.01 ± 0.014
RAB22A (UniProt Q9UL26)	0.955 ± 0.056
C19orf53 (UniProt Q9UNZ5)	0.931 ± 0.15
KMT2B (UniProt Q9UMN6)	1.01 ± 0.015
ARPP21 (UniProt Q9UBL0)	0.947 ± 0.036

Target	NP40-soluble protein abundance
CGGBP1 (UniProt Q9UFW8)	1.04 ± 0.051
UniProt Q9ULR0 and related entries	0.958 ± 0.062
EXTL2 (UniProt Q9UBQ6)	0.962 ± 0.031
APPL1 (UniProt Q9UKG1)	1.03 ± 0.055
UniProt Q9Y250 and related entries	1.04 ± 0.13
UniProt Q9UKX7 and related entries	1.09 ± 0.018
RUVBL2 (UniProt Q9Y230)	1.09 ± 0.018
ZNFX1 (UniProt Q9P2E3)	1.05 ± 0.015
CHORDC1 (UniProt Q9UHD1)	0.973 ± 0.037
MTMR6 (UniProt Q9Y217)	0.962 ± 0.033
DPP7 (UniProt Q9UHL4)	1 ± 0.044
SRP68 (UniProt Q9UHB9)	1.009 ± 0.0096
AKAP11 (UniProt Q9UKA4)	0.96 ± 0.036
NOL7 (UniProt Q9UMY1)	0.952 ± 0.054
UniProt Q9ULL5-3	0.987 ± 0.1
AASS (UniProt Q9UDR5)	1.01 ± 0.046
CFDP1 (UniProt Q9UEE9)	0.869 ± 0.032
ZMAT5 (UniProt Q9UDW3)	1.22 ± 0.21

Same assay, conditions: concentration: 4mM

Target	NP40-soluble protein abundance
GRHPR (UniProt Q9UBQ7)	0.964 ± 0.059
PLAA (UniProt Q9Y263)	0.967 ± 0.019
UniProt Q9UGU0 and related entries	1.19 ± 0.042
UniProt Q9UI30	0.992 ± 0.1
UniProt Q9Y252	1.14 ± 0.038
UniProt Q9UNZ2 and related entries	0.936 ± 0.019
UniProt Q9ULJ3	0.958 ± 0.053
UniProt Q9UBD5 and related entries	1.06 ± 0.039
DNAJB4 (UniProt Q9UDY4)	0.847 ± 0.044
VDAC3 (UniProt Q9Y277)	0.92 ± 0.049
UniProt Q9UK76	0.902 ± 0.033
USP24 (UniProt Q9UPU5)	0.988 ± 0.065
UniProt Q9UNL4 and related entries	1.28 ± 0.043
HMGXB4 (UniProt Q9UGU5)	1.14 ± 0.032
ZNF148 (UniProt Q9UQR1)	0.978 ± 0.031
RAB22A (UniProt Q9UL26)	1.02 ± 0.09
C19orf53 (UniProt Q9UNZ5)	0.961 ± 0.25
KMT2B (UniProt Q9UMN6)	1.07 ± 0.071
ARPP21 (UniProt Q9UBL0)	0.944 ± 0.024

Target	NP40-soluble protein abundance
CGGBP1 (UniProt Q9UFW8)	1.03 ± 0.041
UniProt Q9ULR0 and related entries	0.93 ± 0.071
EXTL2 (UniProt Q9UBQ6)	0.991 ± 0.073
APPL1 (UniProt Q9UKG1)	1.03 ± 0.064
UniProt Q9Y250 and related entries	1.03 ± 0.082
UniProt Q9UKX7 and related entries	1.08 ± 0.026
RUVBL2 (UniProt Q9Y230)	1.077 ± 0.0088
ZNFX1 (UniProt Q9P2E3)	1.06 ± 0.014
CHORDC1 (UniProt Q9UHD1)	0.937 ± 0.06
MTMR6 (UniProt Q9Y217)	0.971 ± 0.049
DPP7 (UniProt Q9UHL4)	0.993 ± 0.026
SRP68 (UniProt Q9UHB9)	1.03 ± 0.022
AKAP11 (UniProt Q9UKA4)	0.939 ± 0.017
NOL7 (UniProt Q9UMY1)	0.974 ± 0.061
UniProt Q9ULL5-3	1.06 ± 0.088
AASS (UniProt Q9UDR5)	1 ± 0.051
CFDP1 (UniProt Q9UEE9)	0.856 ± 0.046
ZMAT5 (UniProt Q9UDW3)	1.32 ± 0.3
